Test results from PMC11734925.

Chains of the proteins cited; added tags and fusions are not shown. Lines headed by an entry give the natural chain unless they say otherwise; changes in a name come on top.
UniProt A1ZBF8: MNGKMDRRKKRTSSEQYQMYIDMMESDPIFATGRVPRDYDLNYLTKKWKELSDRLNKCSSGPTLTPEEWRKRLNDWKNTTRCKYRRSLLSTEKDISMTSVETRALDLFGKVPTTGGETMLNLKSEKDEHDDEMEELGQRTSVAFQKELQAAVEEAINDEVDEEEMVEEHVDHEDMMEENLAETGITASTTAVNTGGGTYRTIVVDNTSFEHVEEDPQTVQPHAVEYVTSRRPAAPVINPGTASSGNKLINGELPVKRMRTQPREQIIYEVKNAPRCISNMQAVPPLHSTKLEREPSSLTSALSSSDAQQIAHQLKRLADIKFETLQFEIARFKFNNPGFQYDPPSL

Tests used:
[1] = molecular target: T1, GFP-D1 (D. melanogaster) (UniProt P22058); test: affinity purification with mass spectrometry; GFP-D1 or GFP-Prod captured on anti-GFP nanobody magnetic beads from ovary lysate (450 mM NaCl, 0.2% NP40, benzonase), 90 min at 4°C; washes with 450 mM NaCl; hits against the NLS-GFP control pulldown
T1 sequence: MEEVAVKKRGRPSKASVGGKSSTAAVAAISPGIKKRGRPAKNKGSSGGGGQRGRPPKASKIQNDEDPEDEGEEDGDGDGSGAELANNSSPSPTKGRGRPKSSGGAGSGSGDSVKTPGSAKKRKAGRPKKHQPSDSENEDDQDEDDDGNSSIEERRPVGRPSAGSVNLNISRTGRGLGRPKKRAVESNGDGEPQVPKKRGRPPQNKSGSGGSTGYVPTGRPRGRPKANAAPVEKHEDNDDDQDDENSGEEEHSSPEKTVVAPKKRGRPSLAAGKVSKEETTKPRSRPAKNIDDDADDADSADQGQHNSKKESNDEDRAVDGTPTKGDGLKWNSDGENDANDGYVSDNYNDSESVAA

[2] = molecular target: GFP-Prod (D. melanogaster) (UniProt A1ZBF8); test: as above
[3] = molecular target: T1, GFP-D1 (D. melanogaster); test: affinity purification with mass spectrometry; GFP-D1 or GFP-Prod captured on anti-GFP nanobody magnetic beads from lysate of nuclei isolated from embryos (450 mM NaCl, 1% Triton-X, benzonase), 90 min at 4°C; washes with 450 mM NaCl; hits against the NLS-GFP control pulldown
[4] = molecular target: GFP-Prod (D. melanogaster) (UniProt A1ZBF8); test: as above

Measured: binding

B1: CG5504 (protein, UniProt Q27237 63-520)
chain: AKDYYATLGVAKNANGKDIKKAYYQLAKKYHPDTNKEDPDAGRKFQEVSEAYEVLSDEQKRREYDTYGQTAENIGRQGGGFPGGGAGGFGPEGFSQSWQFRSSIDPEELFRKIFGEGNFRTNSFDDFADSKFGFGQAQEMVMDLTFAQAARGVNKDVNVNVVDQCPKCAGTKCEPGTKPGRCQYCNGTGFETVSTGPFVMRSTCRYCQGTRQHIKYPCSECEGKGRTVQRRKVTVPVPAGIENGQTVRMQVGSKELFVTFRVERSDYFRREGADVHTDAAISLAQAVLGGTVRVQGVYEDQWINVEPGTSSHHKIMLRGKGLKRVNAHGHGDHYVHVKITVPSAKKLDKKRLALIEAYAELEEDTPGQIHGIANRKDGSKQATAGASEEPGAGAAAKASAAAAGSGASKPGPGAEKSEGKDQWTDNEKTKAKEGGGSGSGQGDGGGGGFISKIKSMFN
binds: all assays above

Results are given in words; binding and its absence hold for the method and conditions named. Binding seen in cells or lysates may run through a third protein. Here binding means that the protein was enriched with, or labelled near, the bait; the list need not be complete. For some of these results: Tags and fused reporters may be left off the sequences shown.
